Results are given in words; binding and its absence hold for the method and conditions named. Binding seen in cells or lysates may run through a third protein. Some entries that bind do so weakly or less than the wild type.
Experiments:
[1] = molecular target: lymphocyte activation gene-3 (LAG3), endogenous in mouse CD8+ T cells (mouse (endogenous in OT-1 and C57BL/6 CD8+ T cells)) (UniProt Q61790); experiment: co-IP; Lag3-/- or Pdcd1-/- mouse CD8+ T cells retrovirally transduced with LAG3 or PD1 constructs (pMIG-II), sorted, rested in IL2, restimulated with IE9mp1 for 5 min or treated with pervanadate for 5 min; antibody-conjugated Dynal beads; Western blot, densitometry normalised to input
[2] = molecular target: lymphocyte activation gene-3 (LAG3), endogenous in mouse CD8+ T cells (mouse (endogenous in OT-1 and C57BL/6 CD8+ T cells)) (UniProt Q61790); experiment: co-IP; endogenous proteins; activated mouse CD8+ T cells (OT-1, C57BL/6; also Lag3-/- or Pdcd1-/-) rested in IL2 and restimulated with plate-bound anti-CD3/B7.1 or with IE9mp1 tumour cells for 3 or 5 min, or treated with pervanadate for 5 min; in some samples pre-treatment with blocking anti-PD-L1 and anti-PD1 antibodies; lysis in 20 mM Tris pH 7.4, 100 mM NaCl, 0.1% Nonidet P-40, 0.1% Triton X-100; antibody-conjugated Dynal beads; Western blot
[3] = molecular target: programmed cell death 1 (PD1), endogenous in mouse CD8+ T cells (mouse (endogenous in OT-1 and C57BL/6 CD8+ T cells)) (UniProt Q02242); experiment: as above
[4] = molecular target: wild-type LAG3 expressed from pMIG-LAG3-Wt in Lag3-/- CD8+ T cells (UniProt Q61790); experiment: co-IP; Lag3-/- or Pdcd1-/- mouse CD8+ T cells retrovirally transduced with LAG3 or PD1 constructs (pMIG-II), sorted, rested in IL2, restimulated with IE9mp1 for 5 min or treated with pervanadate for 5 min; antibody-conjugated Dynal beads; Western blot, densitometry normalised to input
[5] = molecular target: programmed cell death 1 (PD1), endogenous in mouse CD8+ T cells (mouse (endogenous in OT-1 and C57BL/6 CD8+ T cells)) (UniProt Q02242); experiment: as above

Amino acid sequences for entries named in this document (tags omitted). Residues count along the entry.
UniProt Q61790, residues 24-521: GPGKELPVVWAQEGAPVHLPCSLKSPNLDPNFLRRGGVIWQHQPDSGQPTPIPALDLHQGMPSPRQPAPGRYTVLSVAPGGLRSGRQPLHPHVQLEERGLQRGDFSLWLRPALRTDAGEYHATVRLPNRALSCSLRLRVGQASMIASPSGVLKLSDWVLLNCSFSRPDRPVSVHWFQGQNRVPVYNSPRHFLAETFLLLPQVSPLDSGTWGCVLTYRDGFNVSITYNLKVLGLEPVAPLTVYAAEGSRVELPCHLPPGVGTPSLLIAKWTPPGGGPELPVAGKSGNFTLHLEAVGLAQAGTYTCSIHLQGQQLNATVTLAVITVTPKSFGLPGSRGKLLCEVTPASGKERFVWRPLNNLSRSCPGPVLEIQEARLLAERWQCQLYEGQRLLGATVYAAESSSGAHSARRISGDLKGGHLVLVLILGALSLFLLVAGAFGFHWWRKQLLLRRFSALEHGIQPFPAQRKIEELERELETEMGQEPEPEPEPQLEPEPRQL
UniProt Q02242, residues 25-288: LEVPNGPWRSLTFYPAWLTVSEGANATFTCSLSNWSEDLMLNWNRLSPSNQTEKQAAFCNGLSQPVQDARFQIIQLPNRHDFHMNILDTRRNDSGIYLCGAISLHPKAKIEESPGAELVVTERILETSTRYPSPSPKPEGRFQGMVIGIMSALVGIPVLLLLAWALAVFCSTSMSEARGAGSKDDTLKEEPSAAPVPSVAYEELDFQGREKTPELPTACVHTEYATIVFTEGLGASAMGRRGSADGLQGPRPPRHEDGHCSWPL
UniProt P29351: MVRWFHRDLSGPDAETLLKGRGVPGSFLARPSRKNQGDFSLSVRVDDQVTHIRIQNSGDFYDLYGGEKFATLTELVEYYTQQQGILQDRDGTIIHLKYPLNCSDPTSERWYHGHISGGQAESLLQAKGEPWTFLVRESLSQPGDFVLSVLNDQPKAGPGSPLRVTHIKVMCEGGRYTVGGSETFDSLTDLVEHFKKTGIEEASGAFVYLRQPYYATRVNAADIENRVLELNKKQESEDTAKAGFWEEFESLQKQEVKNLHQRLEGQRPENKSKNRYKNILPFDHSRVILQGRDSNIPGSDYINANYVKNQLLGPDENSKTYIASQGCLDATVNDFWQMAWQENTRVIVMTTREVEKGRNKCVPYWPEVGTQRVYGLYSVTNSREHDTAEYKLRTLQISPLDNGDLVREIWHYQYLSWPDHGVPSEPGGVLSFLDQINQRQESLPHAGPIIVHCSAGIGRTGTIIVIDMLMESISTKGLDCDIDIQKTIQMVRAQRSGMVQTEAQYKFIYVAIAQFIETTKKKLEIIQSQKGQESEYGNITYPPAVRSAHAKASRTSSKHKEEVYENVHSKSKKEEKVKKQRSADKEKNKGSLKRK

Substance	binding [1]	binding [2]	further results
Src-homology-2 domain-containing phosphatase SHP1, endogenous in mouse CD8+ T cells (from UniProt P29351 1-595) (enzyme)	binds	binds	–
lymphocyte activation gene-3 (LAG3), endogenous in mouse CD8+ T cells (from UniProt Q61790 24-521) (receptor)	–	–	binding [3]: binds
programmed cell death 1 (PD1), endogenous in mouse CD8+ T cells (from UniProt Q02242 25-288) (receptor)	–	binds	binding [4]: binds
wild-type LAG3 expressed from pMIG-LAG3-Wt in Lag3-/- CD8+ T cells (from UniProt Q61790 24-521) (receptor)	–	–	binding [5]: binds
wild-type PD1 expressed from pMIG-II in Pdcd1-/- CD8+ T cells (from UniProt Q02242 25-288) (receptor)	binds	–	–
